Laboratory results as given in patent US7943774B2 (priority 2008, dated 2011).
Some entries share one result that the patent states for a list of compounds.

Columns and labels:
[1] = tested on: Phytophthora infestans; format: in vivo; settings: active compound concentration of 500 ppm; young tomato plants sprayed, inoculated 1 day after treatment; evaluation 7 days after inoculation; 0% = control, 100% = no infection
[2] = tested on: Plasmopara viticola; assay: Plasmopara test (grapevine)/protective; format: in vivo; settings: active compound concentration of 100 ppm; young grapevine plants sprayed, then inoculated; evaluation 6 days after inoculation; 0% = control, 100% = no infection
Method: Plasmopara Test (Grapevine)/Protective
After the spray coating has dried on, the plants are inoculated with an aqueous spore suspension of Plasmopara viticola and then remain in an incubation cabin at about 20° C. and 100% relative atmospheric humidity for 1 day. The plants are then placed in a greenhouse at about 21° C. and an atmospheric humidity of about 90% for 4 days. The plants are then moistened and placed in an incubation cabin for 1 day.
Evaluation is carried out 6 days after the inoculation.

Row | SMILES | efficacy [1] | efficacy [2]
1 | Cc1cc(C)n(CC(=O)N2CCC(c3nc(/C=C/c4cccc5ccccc45)cs3)CC2)n1 [Example I-77] | ≥ 70% | 
2 | Cc1cc(C(F)(F)F)nn1CC(=O)N1CCC(c2nc(C#Cc3ccc(Cl)cc3Cl)cs2)CC1 [Example I-105] | ≥ 70% | ≥ 70%
3 | Cc1cc(C)n(CC(=O)N2CCC(c3nc(CCc4cccc5ccccc45)cs3)CC2)n1 [Example I-79] | ≥ 70% | 
4 | CC(C)c1cc(C(F)(F)F)n(CC(=O)N2CCC(c3nc(CCc4cccc5ccccc45)cs3)CC2)n1 [Example I-121] | ≥ 70% | 
5 | O=C(Cn1nc(C(F)F)cc1C(F)F)N1CCC(c2nc(C#Cc3cccc4ccccc34)cs2)CC1 [Example I-117] | ≥ 70% | ≥ 70%
6 | Cc1cc(C(F)F)n(CC(=O)N2CCC(c3nc(CCc4ccccc4)cs3)CC2)n1 [Example I-35] | ≥ 70% | ≥ 70%
7 | Cc1cc(C(F)(F)F)nn1CC(=O)N1CCC(c2nc(/C=C/c3ccccc3)cs2)CC1 [Example I-26] | ≥ 70% | 
8 | CCc1cc(C(F)(F)F)nn1CC(=O)N1CCC(c2nc(C#Cc3cccc4ccccc34)cs2)CC1 [Example I-116] | ≥ 70% | ≥ 70%
9 | Cc1cc(C(F)(F)F)nn1CC(=O)N1CCC(c2nc(/C=C\c3ccccc3)cs2)CC1 [Example I-1] | ≥ 70% | ≥ 70%
10 | O=C(Cn1nc(C(F)(F)F)cc1C(F)(F)F)N1CCC(c2nc(CCc3cccc4ccccc34)cs2)CC1 [Example I-43] | ≥ 70% | ≥ 70%
11 | CCc1cc(CC)n(CC(=O)N2CCC(c3nc(C#Cc4cccc5ccccc45)cs3)CC2)n1 [Example I-115] | ≥ 70% | ≥ 70%
12 | Cc1cc(C)n(CC(=O)N2CCC(c3nc(/C=C/c4cccc(C(F)(F)F)c4)cs3)CC2)n1 [Example I-96] | ≥ 70% | ≥ 70%
13 | CCc1cc(CC)n(CC(=O)N2CCC(c3nc(CCc4cccc5ccccc45)cs3)CC2)n1 [Example I-107] | ≥ 70% | 
14 | O=C(Cn1nc(C(F)F)cc1C(F)F)N1CCC(c2nc(CCc3cccc4ccccc34)cs2)CC1 [Example I-109] | ≥ 70% | ≥ 70%
15 | Cc1cc(C(F)(F)F)nn1CC(=O)N1CCC(c2nc(C#Cc3ccccc3)cs2)CC1 [Example I-99] | ≥ 70% | ≥ 70%
16 | Cc1cc(C(F)(F)F)nn1CC(=O)N1CCC(c2nc(/C=C\c3ccc(Cl)cc3)cs2)CC1 [Example I-9] | ≥ 70% | ≥ 70%
17 | Cc1cc(C(F)(F)F)nn1CC(=O)N1CCC(c2nc(CCc3ccc(Cl)cc3Cl)cs2)CC1 [Example I-123] | ≥ 70% | 
18 | COc1ccc(C#Cc2csc(C3CCN(C(=O)Cn4nc(C(F)(F)F)cc4C)CC3)n2)c(OC)c1 [Example I-104] | ≥ 70% | ≥ 70%
19 | O=C(Cn1nc(C(F)(F)F)cc1C(F)(F)F)N1CCC(c2nc(CCc3ccccc3)cs2)CC1 [Example I-59] | ≥ 70% | ≥ 70%
20 | O=C(Cn1nc(C(F)(F)F)cc1C(F)(F)F)N1CCC(c2nc(C#Cc3cccc4ccccc34)cs2)CC1 [Example I-114] | ≥ 70% | ≥ 70%
21 | Cc1cc(C(F)(F)F)nn1CC(=O)N1CCC(c2nc(C#Cc3ccccc3Cl)cs2)CC1 [Example I-101] | ≥ 70% | ≥ 70%
22 | Cc1cc(C)n(CC(=O)N2CCC(c3nc(CCCC(C)c4ccccc4)cs3)CC2)n1 (stereo not drawn) [Example I-83] | ≥ 70% | 
23 | Cc1cc(C(F)(F)F)nn1CC(=O)N1CCC(c2nc(C#Cc3ccc(Cl)cc3)cs2)CC1 [Example I-102] | ≥ 70% | ≥ 70%
24 | Cc1cc(C(F)(F)F)nn1CC(=O)N1CCC(c2nc(/C=C\c3cccc(C(F)(F)F)c3)cs2)CC1 [Example I-15] | ≥ 70% | 
25 | CC(C)c1cc(C(F)(F)F)n(CC(=O)N2CCC(c3nc(C#Cc4cccc5ccccc45)cs3)CC2)n1 [Example I-122] | ≥ 70% | 
26 | CCc1cc(C(F)(F)F)nn1CC(=O)N1CCC(c2nc(CCc3cccc4ccccc34)cs2)CC1 [Example I-108] | ≥ 70% | ≥ 70%
27 | Cc1cc(C)n(CC(=O)N2CCC(c3nc(C#Cc4cccc5ccccc45)cs3)CC2)n1 [Example I-74] | ≥ 70% | ≥ 70%
